# Experimental data reported in PubChem BioAssay AID1508600 (Functional Genomics Laboratory (NCATS/FGL), 2020).
# Screen size: about 53,000 sequences; about 3,700 (7%) were called active.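 The calls were made as follows: active = gene knockdowns whose robust z-score for IL-1 alpha signal is at least 2 or at most -2, so actives lie on both sides; inactive = the rest.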 Some of the results follow.
# Test: Components of the Cytosolic LPS Sensing Pathway: Gene Identification via Genome-wide siRNA Screen;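 also: robust z of the log signal after scaling to non-targeting control siRNA wells of the plate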
# Details: RAW264.7 macrophages, IL-1a HTRF, actives lie on both sides, screened at 100 nM (by protocol), cells primed 5 h with Pam3CSK4 first
# In short: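 Mouse macrophage line RAW264.7 is transfected with siRNA (100 nM final), grown 48h, primed with TLR ligand Pam3CSK4 5 h and given intracellular LipidA 24 h. IL-1a in supernatant is read by HTRF and viability by luminescence.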
row,Sequence,z-score
1,GGCUUCAGACAAGCAAUAATT against Lce1l,inactive: -1.04
2,GGGUGUCAUCCUUAUCCUGTT against Olfr655,inactive: -0.0528
3,GCCGACUCAUGGUUUAGAATT against Tmem18,inactive: -0.0972
4,GGUAAAGAAUCUCAACAGCTT against Gatb,inactive: 0.738
5,GCAAGUUUAGUGAAUUGUGTT against Ddx58,inactive: -0.219
6,GGCUAAAAUCUAUUUAUCGTT against Fezf2,inactive: 1.16
7,GGCUUACCGAAAGCAAGCCTT against Dnajb4,inactive: 0.0143
8,GGAGAAAAACACAUCCCAUTT against Foxa2,inactive: -1.46
9,GGACCUGAAACACGCCAAUTT against Cdk18,inactive: -0.35
10,GCAAGUCCUAAUAUUGUGATT against Rab5a,inactive: 0.0993
11,GGAUUUGAUCCGAUACCUGTT against Timeless,inactive: 0.563
12,CCAUGCAUGUUUUAGGCCATT against Gsdmc2,inactive: -1.21
13,GGAUCUGUGAGAAUCAUAGTT against Rabgap1l,active: -2.24
14,GGGAACCAGGGACUUUGAUTT against AI661453,inactive: 0.654
15,GCCCUUACUUAGGUCUAGGTT against Kctd12,inactive: -0.522
16,GCCAUAAACCGAGGAAAAATT against Fam71f1,inactive: -1.22
17,GGACUUAGAAGUCUGCUAATT against Iqcb1,inactive: -0.845
18,GGUGAUUUCAAAUGAAAGCTT against Prps2,inactive: -0.702
19,GGGCUAUCGACUCAACAGATT against Kif23,inactive: -1.71
20,GCAGAUAGUUUUGUAACACTT against Bclaf3,inactive: 0.807
21,GCAAGUAACUACCAGAGUATT against Cfap20,inactive: -0.488
22,GGUUUGCAAUAAUUUUCCCTT against Cyp2c66,inactive: -0.0991

row,Sequence,z-score
1,GGAUGUUGGAAGAAGGCUUTT against Kcna5,inactive: 0.14
2,UGUCUGGAUGUCUAGGUGATT against Pisd-ps1,inactive: -0.747
3,GGAAGAAAGUGGCAUAGCCTT against Sirt7,inactive: 0.124
4,GGCAAAUCCAAAGUUGUCUTT against Sowahc,inactive: -0.878
5,GCAACAUAAAUCCCAAAGUTT against Myo1h,inactive: 0.376
6,CCCGAUUAAAGUUUUGACCTT against Pbx4,inactive: 0.995
7,GGCCUUGUGUGUCCAUCAATT against 4933421I07Rik,inactive: -1.91
8,GGAAGUGCUUAUGUCCUUATT against Cited2,inactive: -0.981
9,GGGAGAAUCGUCAAUGAUGTT against Dpysl3,inactive: -0.583
10,GCGAACAUUUUUCAGGGUATT against Nsun7,inactive: -0.0457
11,GCUCCCUUAGGCUAUGAUATT against Ash2l,inactive: -0.658
12,CCUCAUCACUCAUAGCAGATT against Gfi1,inactive: -0.524
13,CCUACAUGACCACAGAGUUTT against Bbof1,inactive: 0.413
14,GGGAAAAUAUCUCAUAUCATT against Colec10,inactive: -0.944
15,GGUAGACUGAACUUCAGCATT against Larp6,inactive: -1.31
16,GGAAGUAUGAAAUUAUCAGTT against Car12,inactive: 0.0371
17,GGCAGAAAAACUGUGCAACTT against Washc5,inactive: 0.732
18,GUCCCACACUGAUAAGAUUTT against Lcorl,inactive: -0.602
19,GGACCGAAAGCAUUCGAUUTT against Cdhr3,inactive: 1.79
20,GCAAAAUAGCCAGUUAAUGTT against Strn,inactive: 1.92
21,GGCUGGACCAAAUUUGGUATT against Gpihbp1,inactive: 0.84
22,CGGGUAUGCCUUAUGUUGATT against Etnk2,inactive: -0.216

row,Sequence,z-score
1,GGAAACCUUUUACCUUUAATT against Padi1,inactive: -0.874
2,CGCCGACAGAGUUCAGAAATT against Stpg1,inactive: -0.976
3,GGUGAGAACUCAAGAGACUTT against Scp2,inactive: -1.06
4,GGAUCACACCAUCAAAAAGTT against Copb1,inactive: -1.21
5,GGCGAUAAGGAACAGAAGUTT against Ppp3r1,inactive: -0.199
6,GGCUCGUCAAAUCAAGUAUTT against H2bc6,active: -2.37
7,GCUUGAUUAUUGUGUGUCCTT against Olfr786,inactive: -1.53
8,GGUUGUAUUAUCUUCGGAATT against Psmb8,inactive: 0.986
9,GGAACUUCUGGAAUCCCUCTT against Klra5,inactive: -0.527
10,GGCUUACCUAAUCAAUUGUTT against Laptm4a,inactive: 0.424
11,CGAUUCUUUAGGAACUUUGTT against Pak7,inactive: -0.0771
12,CGAACACAUAUAGAUCAUCTT against Atp8b5,inactive: 0.000437
13,GGACAAGCUAAGCAUUGAGTT against Atp6ap1,inactive: -1.45
14,GGAAGCUGAAAGAAGGAGATT against Mx1,inactive: 1.58
15,GCGACUGGCGCAACAAAAUTT against Sox18,inactive: -0.683
16,GGAUACUUUGACCAAGUCUTT against Irx6,inactive: -1.84
17,GCCAUUCCAAAGUAUUACCTT against Mrpl34,inactive: -0.518
18,GCAGAUAGCUGCUACCCAUTT against Tmco6,inactive: -0.728
19,GCUGUUCAUAUAUCUUGCUTT against Olfr1386,inactive: 1.17
20,GGUCCCGGAACGGUACUUUTT against Paqr3,inactive: -0.778
21,GGUCACACUGGUGAAGUCUTT against Tjp1,inactive: -0.131
22,GGAUGAGAAUAGCUAGAAATT against Zfp553,inactive: 1.96

row,Sequence,z-score
1,GGCAAGAGAAUUCAGAUCUTT against Slc5a1,active: 2.91
2,GGAGUUUCUAGAACUCUCATT against Rtl3,inactive: 0.411
3,CCAUAGCAGGGAAGAUUUUTT against Kcnd2,active: 3.78
4,GGUCAGCUAUCUAAUGAUUTT against Fam162a,inactive: 0.665
5,GCUAGAUCCCGUGCUUAAGTT against Map1s,inactive: -0.156
6,GCAUGUCGAGUUUGAUUUCTT against Wdr12,inactive: -0.247
7,GGAUAUCACCCACAAUAAATT against Vps28,inactive: -0.653
8,GGAGUACCUGGAGUUCUUCTT against Zbtb7a,inactive: -1.33
9,GGCUCAUGAGAAGACACACTT against Zbtb17,inactive: 0.204
10,GGAACUAAUGUGCAGGAGGTT against Suclg2,inactive: 0.459
11,GGAUGAAGAAGAUGAAGAUTT against Prepl,active: -2.62
12,GGCUGAAUCUUGAAAAUGATT against Cntnap1,inactive: -1.52
13,CCGUUGUCAUGUUUUAAAGTT against Prdx6,inactive: -0.287
14,GGCCUAUUUGUUUUUGAAATT against Mthfd2,inactive: 1.45
15,CCUCGAUAGGUUAGUGACATT against Fdxacb1,inactive: -0.731
16,GGCUCUUCUAUUCUGAACUTT against Ly86,inactive: 0.412
17,CGGUAAAUGGUCAAGAGUATT against Rheb,inactive: -0.16
18,CCAGAAUGUCACUGCCAGUTT against Zfy1,inactive: 1.34
19,GGAGUGAAAUCUCCUAAAATT against Tmsb10,inactive: -0.44
20,GCUCCAACCCAAGAAAUUCTT against Hlx,inactive: 1.01
21,GGAUCCUGAAAUCAAAACUTT against Mbl1,inactive: -0.316
22,GGGUCAAUCAUGAAUGUUUTT against Pak4,inactive: -1.02

# Given bar-delimited: entries from further up.
row | Sequence | z-score
3 | GCCGACUCAUGGUUUAGAATT against Tmem18 | inactive: -0.0972
8 | GGAGAAAAACACAUCCCAUTT against Foxa2 | inactive: -1.46
10 | GCAAGUCCUAAUAUUGUGATT against Rab5a | inactive: 0.0993
12 | CCAUGCAUGUUUUAGGCCATT against Gsdmc2 | inactive: -1.21
14 | GGGAACCAGGGACUUUGAUTT against AI661453 | inactive: 0.654
16 | GCCAUAAACCGAGGAAAAATT against Fam71f1 | inactive: -1.22
18 | GGUGAUUUCAAAUGAAAGCTT against Prps2 | inactive: -0.702
21 | GCAAGUAACUACCAGAGUATT against Cfap20 | inactive: -0.488
4 | GGCAAAUCCAAAGUUGUCUTT against Sowahc | inactive: -0.878
5 | GCAACAUAAAUCCCAAAGUTT against Myo1h | inactive: 0.376
8 | GGAAGUGCUUAUGUCCUUATT against Cited2 | inactive: -0.981
16 | GGAAGUAUGAAAUUAUCAGTT against Car12 | inactive: 0.0371
20 | GCAAAAUAGCCAGUUAAUGTT against Strn | inactive: 1.92
4 | GGAUCACACCAUCAAAAAGTT against Copb1 | inactive: -1.21
7 | GCUUGAUUAUUGUGUGUCCTT against Olfr786 | inactive: -1.53
8 | GGUUGUAUUAUCUUCGGAATT against Psmb8 | inactive: 0.986
9 | GGAACUUCUGGAAUCCCUCTT against Klra5 | inactive: -0.527
13 | GGACAAGCUAAGCAUUGAGTT against Atp6ap1 | inactive: -1.45
14 | GGAAGCUGAAAGAAGGAGATT against Mx1 | inactive: 1.58
19 | GCUGUUCAUAUAUCUUGCUTT against Olfr1386 | inactive: 1.17
11 | GGAUGAAGAAGAUGAAGAUTT against Prepl | active: -2.62
12 | GGCUGAAUCUUGAAAAUGATT against Cntnap1 | inactive: -1.52
20 | GCUCCAACCCAAGAAAUUCTT against Hlx | inactive: 1.01
21 | GGAUCCUGAAAUCAAAACUTT against Mbl1 | inactive: -0.316

# More entries follow:

row,Sequence,z-score
1,GGAGGAGAUGAAUGCUCUGTT against Krt17,inactive: -1.98
2,GGCCAAAGGGCAAAGUGAUTT against Plppr4,inactive: 0.809
3,GCCUUGUAUACACUUGUUATT against Mrps27,inactive: 0.588
4,GGGAAAGAAAGUCAGCUCUTT against Ptprf,inactive: 0.341
5,GGAAUUCCUAAUUACGAAUTT against Ufd1,inactive: -0.788
6,GGAAGAGGUGGACAAGAUGTT against Gps2,inactive: -0.621
7,GGUGUUUAAUUGCUCACUATT against Gramd4,inactive: 1.13
8,GCUUUUUAGGCAUUGGUAATT against Lif,inactive: -0.0823
9,GGGCCACUUUCCAAUUCAATT against Tectb,inactive: 0.817
10,GUGGUUGUUUUCGUCCUUCTT against Olfr821,inactive: 1.12
11,CGGUGGAAUUCGUUAGAAGTT against Ireb2,inactive: -0.183
12,CCAAUGAAACUUCUAGACUTT against Gjb2,inactive: 0.451
13,GGUAACUGACUAAUGGAAGTT against Tcl1b4,inactive: -0.638
14,GCUAUGUCAUAUCAUCAAGTT against Adgrg2,inactive: 0.532
15,GGAGAAAAGCUGACCUUUGTT against Gstm5,inactive: 0.218
16,CAUUCCAACACUUCAAACUTT against Fbrsl1,inactive: 0.154
17,CCCAUGGAAUGAAAACAACTT against Gm4894,active: 2.58
18,CGGACACACUUUGUUAUUATT against 4833420G17Rik,inactive: 0.198
19,GCCCUGAAAUGAAACUGCUTT against Tmem80,inactive: 0.691
